# Source: PubChem BioAssay AID2685 (National Center for Advancing Translational Sciences (NCATS), 2010)
# This is one part of the list. Further columns of the screen follow, without active or inactive calls. Compounds called inactive in the main read-out are mostly missing here. Words in brackets tell the shape of the fitted curve; partial curves, single points and poor fits give uncertain potencies.
# Experiment: qHTS Assay for Lipid Storage Modulators in Drosophila S3 Cells;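 for cell number change: cells counted by Cell Tracker Red CMTPX staining in the red channel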
# Conditions: BODIPY lipid droplet fluorescence, 18-24 h; for cell number change: measured here: cell count max response, cells fed with added oleic acid
# Method in brief: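 Drosophila S3 cells loaded with oleic acid (400 uM, as added) and compounds at several concentrations; lipid droplets imaged by 488-nm laser-scanning cytometry, 500–530 nm intensity and object ratio to cell channel. Percent activity normalized to 20 uM Triacsin C.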
# [1] = measured here: lipid fluorescence (Fed channel) AC50, cells fed with added oleic acid
# [2] = measured here: cell number channel AC50, cells fed with added oleic acid
SMILES,cell number change [%],AC50 [1],AC50 [2]
O=C(Nc1cccc(CNCCc2c[nH]c3ccccc23)c1)c1ccccc1Cl,27.9,"11.6 µM [rising, partial curve]",
Clc1ccc(CN2C3=NCCCN3c3ccccc32)cc1Cl,-44.7,,"29.1 µM [falling, single point]"
CCn1ccnc1CN(C)Cc1cn(-c2ccc(C)cc2)nc1-c1cccc(C)c1,-22.9,"29.1 µM [falling, single point]",
O=C(Cc1c(Sc2ccccc2)c2ccccc2n1Cc1ccccc1)NCCO,,"16.4 µM [falling, partial curve]",
COC(=O)c1ccccc1NC(=O)C1CC(=O)N(C2CCCCC2)C1 (configuration not stated),-9.99,,"4.11 µM [falling, partial curve]"
N#Cc1ccsc1NC(=O)CSc1ncnc2ccccc12,-41.7,"3.26 µM [rising, partial curve, poor fit]","29.1 µM [falling, single point]"
CCOc1ccc(N=C2C(=O)Nc3ccc(C)c(Br)c32)cc1,-2.7,,
CC(C)c1ccc(CCNC(=O)CCNS(=O)(=O)c2ccc(Br)cc2)cc1,9.23,"0.0731 µM [rising, full curve, poor fit]",
CCOc1ccc(CSC(=N)N)cc1,-7.7,,
O=[N+]([O-])c1cc(S(=O)(=O)N2CCOCC2)ccc1OCc1cccc(Cl)c1,-29.8,"2.31 µM [rising, partial curve]",
C=CCNC(=O)CCCCC(=O)NCC=C,1.01,,
Cc1ccc2c(c1)NCCO2,10.1,"4.11 µM [falling, partial curve, poor fit]",
CCN(CC(=O)Nc1ccc(NC(C)=O)cc1)C(=O)CSCC(=O)Nc1ccc(C)cc1,5.71,"3.26 µM [falling, single point]",
CCOC(=O)c1ccc(NC(=O)c2c(Cl)cc(C)nc2C)cc1,-25.2,"16.4 µM [falling, partial curve]",
CCSc1cc(C)nc2c(-c3ccccc3)c(C)nn12,,"6.51 µM [rising, single point]","6.51 µM [rising, single point]"
COC(=O)CCCNC(=O)c1ccc2[nH]c(C)c(C)c2c1,66.9,"16.4 µM [rising, partial curve]","20.6 µM [rising, single point]"
CSCC[C@H](NC(=O)N1CCn2c1nc1ccccc12)C(=O)N1CCCCC1,-7.26,"29.1 µM [falling, single point]",
O=C(COC(=O)c1ccc2ccccc2c1)Nc1ncc(C(F)(F)F)cc1Cl,-39.3,"0.731 µM [falling, full curve]","0.411 µM [falling, full curve]"
COC(=O)CCCCCCCC(=O)Nc1nnc(C(F)(F)F)s1,-27.5,"29.1 µM [falling, single point]",
O=S(=O)(c1ccc(Cl)cc1)N1CCC(N2CCOCC2)CC1,-27.9,,
O=C(NNC(=O)c1cccnc1SCc1cccc([N+](=O)[O-])c1)c1ccc(F)cc1,22.1,"14.6 µM [rising, partial curve, poor fit]",

# Look-ups from the results shown.
# CCOc1ccc(N=C2C(=O)Nc3ccc(C)c(Br)c32)cc1 – cell number change [%]: -2.7
# CSCC[C@H](NC(=O)N1CCn2c1nc1ccccc12)C(=O)N1CCCCC1 – AC50 [1]: 29.1 µM [falling, single point]
# O=C(COC(=O)c1ccc2ccccc2c1)Nc1ncc(C(F)(F)F)cc1Cl – AC50 [2]: 0.411 µM [falling, full curve]

# More structures follow:

SMILES,cell number change [%],AC50 [1],AC50 [2]
CCOC(=O)NC(=O)CSc1nnc(C2CC2)n1Cc1ccco1,44.4,"18.4 µM [rising, single point]","18.4 µM [rising, single point]"
COc1ccc(C)cc1NC(=O)CSc1nc(SC)ns1,-2.7,"1.64 µM [rising, partial curve]",
Cn1cc(S(=O)(=O)Oc2ccccc2)c(=O)n(C)c1=O,-29,,
COc1ccc2nc(SC(C(=O)c3ccccc3)c3ccccc3)nc(C)c2c1 (configuration not stated),10.4,"3.66 µM [falling, single point]",
Cc1ccc(C(=O)OCC(=O)NCCc2ccccc2)cc1S(=O)(=O)N1CCOCC1,,"25.9 µM [rising, partial curve, poor fit]","6.51 µM [falling, single point]"
CCc1c(C(=O)NNC(=S)NC2CCCCC2)csc1C,-29.5,"20.6 µM [falling, single point]",
COCCCN(C(=O)CCOc1ccccc1C)c1c(N)n(Cc2ccccc2)c(=O)[nH]c1=O,-13.7,,
CCCCC(CC)COC(=O)CCCCC(=O)OCC(CC)CCCC (configuration not stated),-23.5,"1.16 µM [rising, single point]",
NC(=O)NC(=O)CSc1nc(C2CCCCC2)n(-c2ccccc2)n1,,"0.082 µM [rising, partial curve, poor fit]",
CCCCCCC(=O)Nc1nc(C)c(-c2csc(Nc3cccc(OC)c3)n2)s1,-27.6,"9.2 µM [falling, partial curve, poor fit]",
N/C(CSc1ccc(Cl)cc1)=N\S(=O)(=O)c1ccc(Cl)cc1,-48.2,"29.1 µM [falling, single point]","29.1 µM [falling, single point]"
CCOc1ccccc1COC(=O)c1cccc(-n2cnnn2)c1,-27.6,"8.2 µM [falling, partial curve, poor fit]",
CC(C)(C)NCC(=O)c1c[nH]c2ccccc12,,"20.6 µM [rising, partial curve]",
Cc1ccc(NC(=O)CC(C)S(=O)(=O)c2ccc3c(c2)NC(=O)CO3)c(Cl)c1 (configuration not stated),-33.7,"8.2 µM [falling, single point]","29.1 µM [falling, single point]"
Cc1[nH]n(-c2ccccc2)c(=O)c1C(=O)c1ccccc1,-2.58,,
Cc1ccc(-c2csc(Nc3ccc(C(=O)O)cc3)[n+]2Cc2ccccc2)cc1,37.1,"1.84 µM [falling, partial curve]","1.46 µM [falling, partial curve]"
NC(=O)c1ccc(NC(=O)CN2CCOCC2)cc1,-1.37,"6.51 µM [falling, single point]",
C#CCOC(=O)c1ccccc1C(=O)OCC#C,47,"23.1 µM [rising, partial curve]","7.31 µM [rising, single point]"
CCOC(=O)c1c(CN(CC)CC)oc2cc(Br)c(O)cc12,-0.348,"6.51 µM [rising, single point]",
CCC1CCCCN1C(=O)COc1c(Br)cc(Br)c2cccnc12 (configuration not stated),-35,,
COc1ccc(S(=O)(=O)N2CCOCC2)cc1NC(=O)CN1C(=O)NC2(CCCCC2C)C1=O (configuration not stated),1.98,,"0.082 µM [falling, full curve, poor fit]"

SMILES,cell number change [%],AC50 [1],AC50 [2]
CCCCC(c1nnnn1CC1CCCO1)N1CCN(c2cccc(C)c2C)CC1 (configuration not stated),-6.88,"29.1 µM [rising, single point]",
Cc1ccccc1Cn1c(=O)n(Cc2ccco2)c(=O)c2ccccc21,-4.53,"8.2 µM [rising, partial curve]",
CC1Cc2ccccc2N1C(=O)C1CCN(S(=O)(=O)c2cccs2)CC1 (configuration not stated),-31,,
COc1ccc(NC(=O)c2ccc(C(=O)c3ccccc3)o2)cc1,,,"1.16 µM [rising, single point]"
CCOC(=O)c1cc2c3ccccc3n(CC)c2nc1N,-13.8,,
Cc1nc2ccc(S(=O)(=O)N(C)CC(=O)NCc3ccc(N(C)C)cc3)cc2s1,87.1,,"18.4 µM [rising, single point]"
COC(=O)c1ccc(Oc2nc(Nc3ccc(F)cc3)nc(N3CCCC3)n2)cc1,-27.9,"29.1 µM [falling, single point]",
O=C(Nc1nc2ccccc2[nH]1)c1ccc(Cl)c(S(=O)(=O)N2CCCC2)c1,,"29.1 µM [rising, single point]","5.17 µM [rising, single point]"
CCc1n[nH]c(=S)n1/N=C/c1cc(Br)c(O)c(OC)c1,31.5,"0.13 µM [rising, full curve, poor fit]",
CC(C)C1Nc2ccc(C(=O)NCc3ccco3)cc2NC1=O (configuration not stated),-5.56,"29.1 µM [rising, single point]",
CCc1ccc(C(=O)N/N=C(\C)c2cccnc2)s1,5.41,"29.1 µM [falling, single point]",
CCOC(=O)C1CCN(S(=O)(=O)c2ccc(C)cc2)CC1,58.8,,"16.4 µM [rising, partial curve]"
Cc1ccc(S(=O)(=O)N2CCCN(C(=O)c3ccc(-n4cccn4)cc3)CC2)cc1,20.4,"32.6 µM [rising, single point]",
COc1cc(C(=O)ONC(=O)c2ccc(OC(F)F)cc2)cc(OC)c1OC,23.1,,
CCOc1ccc(N(C)S(=O)(=O)c2ccc(C)c(C(=O)NCc3ccccc3OC)c2)cc1,-25.1,"5.8 µM [falling, partial curve]",
CC(C)(C)c1cc(C(=O)NC2CC2)n(Cc2ccc(F)cc2)n1,,"2.59 µM [rising, partial curve]",
N#C/C(=C\c1cccc(Oc2ccc(C(F)(F)F)cc2[N+](=O)[O-])c1)c1nc2ccccc2[nH]1,37.1,,"2.06 µM [rising, partial curve]"
C=CCNC(=O)c1c(N)n(-c2cccc(S(N)(=O)=O)c2)c2nc3ccccc3nc12,12.4,,"0.00411 µM [rising, full curve, poor fit]"
O=C(COc1cc(O)c2c(=O)cc(-c3ccccc3)oc2c1)c1cccc([N+](=O)[O-])c1,9.68,"6.51 µM [falling, single point]",
Cc1ccccc1NC(=S)N/N=C/c1ccc(O)cc1O,14.3,"5.8 µM [rising, full curve]","3.26 µM [rising, single point]"
